Measurements from “University of Dundee, Small-Polar-MMV Screening Library” (2021), ChEMBL document CHEMBL3988442.

By UniProt entry, the sequences of proteins in these tests, tags left out. Residues count along the entry.
UniProt I6X8D2, whole entry: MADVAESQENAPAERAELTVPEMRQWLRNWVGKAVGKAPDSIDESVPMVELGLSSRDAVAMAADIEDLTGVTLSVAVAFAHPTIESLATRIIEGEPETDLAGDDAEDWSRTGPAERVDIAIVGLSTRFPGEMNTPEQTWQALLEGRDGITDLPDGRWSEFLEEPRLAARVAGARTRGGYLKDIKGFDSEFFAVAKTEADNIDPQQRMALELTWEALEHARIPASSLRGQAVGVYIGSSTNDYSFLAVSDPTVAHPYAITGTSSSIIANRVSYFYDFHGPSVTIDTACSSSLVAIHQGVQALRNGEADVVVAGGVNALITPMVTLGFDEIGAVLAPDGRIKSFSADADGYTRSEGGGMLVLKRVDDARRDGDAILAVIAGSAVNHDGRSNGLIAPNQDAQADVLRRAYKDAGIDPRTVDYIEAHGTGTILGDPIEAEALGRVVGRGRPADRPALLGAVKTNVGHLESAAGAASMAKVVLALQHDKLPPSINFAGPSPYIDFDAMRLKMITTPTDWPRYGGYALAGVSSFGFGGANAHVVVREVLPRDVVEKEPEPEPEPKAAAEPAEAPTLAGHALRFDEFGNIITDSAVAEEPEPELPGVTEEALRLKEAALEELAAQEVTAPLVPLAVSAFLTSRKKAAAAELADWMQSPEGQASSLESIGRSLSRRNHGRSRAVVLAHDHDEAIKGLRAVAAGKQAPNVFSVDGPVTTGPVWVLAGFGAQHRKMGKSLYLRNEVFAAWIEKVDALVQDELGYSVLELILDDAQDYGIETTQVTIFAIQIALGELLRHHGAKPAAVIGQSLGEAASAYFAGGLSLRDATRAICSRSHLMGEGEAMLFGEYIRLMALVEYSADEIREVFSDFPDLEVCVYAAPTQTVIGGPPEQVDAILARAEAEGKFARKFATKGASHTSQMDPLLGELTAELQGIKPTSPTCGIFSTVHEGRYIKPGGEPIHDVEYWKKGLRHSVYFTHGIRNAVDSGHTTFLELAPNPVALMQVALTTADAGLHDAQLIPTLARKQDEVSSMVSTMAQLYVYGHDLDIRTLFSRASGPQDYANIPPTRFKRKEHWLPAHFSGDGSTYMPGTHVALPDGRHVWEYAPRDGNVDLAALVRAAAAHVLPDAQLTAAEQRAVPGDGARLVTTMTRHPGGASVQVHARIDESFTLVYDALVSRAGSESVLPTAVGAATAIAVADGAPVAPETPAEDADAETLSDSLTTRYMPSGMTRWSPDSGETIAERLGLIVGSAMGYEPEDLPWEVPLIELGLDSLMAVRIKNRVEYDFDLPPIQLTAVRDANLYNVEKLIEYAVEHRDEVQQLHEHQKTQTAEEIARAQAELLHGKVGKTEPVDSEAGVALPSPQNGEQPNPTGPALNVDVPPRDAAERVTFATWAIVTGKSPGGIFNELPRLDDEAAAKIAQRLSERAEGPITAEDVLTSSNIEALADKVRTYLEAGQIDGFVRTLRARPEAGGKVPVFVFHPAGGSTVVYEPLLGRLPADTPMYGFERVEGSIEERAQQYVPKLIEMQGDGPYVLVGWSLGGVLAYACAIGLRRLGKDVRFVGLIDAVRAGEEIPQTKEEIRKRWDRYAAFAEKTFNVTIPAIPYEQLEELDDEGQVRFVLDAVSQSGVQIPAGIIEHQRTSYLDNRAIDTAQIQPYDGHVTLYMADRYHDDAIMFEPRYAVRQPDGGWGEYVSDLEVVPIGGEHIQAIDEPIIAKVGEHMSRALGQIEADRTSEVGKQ
UniProt A4I591, 1-473: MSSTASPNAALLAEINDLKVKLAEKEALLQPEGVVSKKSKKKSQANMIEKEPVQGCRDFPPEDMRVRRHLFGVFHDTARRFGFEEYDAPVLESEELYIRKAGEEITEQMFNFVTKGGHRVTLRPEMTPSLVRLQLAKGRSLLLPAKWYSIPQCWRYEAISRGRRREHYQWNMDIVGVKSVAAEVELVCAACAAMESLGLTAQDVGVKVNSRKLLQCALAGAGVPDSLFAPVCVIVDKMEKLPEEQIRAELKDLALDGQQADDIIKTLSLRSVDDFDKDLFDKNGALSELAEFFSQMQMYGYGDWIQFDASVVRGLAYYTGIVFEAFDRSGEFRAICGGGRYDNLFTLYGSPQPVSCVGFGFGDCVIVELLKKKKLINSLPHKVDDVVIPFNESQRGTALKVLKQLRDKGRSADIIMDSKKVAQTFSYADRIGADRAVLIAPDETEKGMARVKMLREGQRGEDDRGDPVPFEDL
UniProt P9WNZ1, whole entry: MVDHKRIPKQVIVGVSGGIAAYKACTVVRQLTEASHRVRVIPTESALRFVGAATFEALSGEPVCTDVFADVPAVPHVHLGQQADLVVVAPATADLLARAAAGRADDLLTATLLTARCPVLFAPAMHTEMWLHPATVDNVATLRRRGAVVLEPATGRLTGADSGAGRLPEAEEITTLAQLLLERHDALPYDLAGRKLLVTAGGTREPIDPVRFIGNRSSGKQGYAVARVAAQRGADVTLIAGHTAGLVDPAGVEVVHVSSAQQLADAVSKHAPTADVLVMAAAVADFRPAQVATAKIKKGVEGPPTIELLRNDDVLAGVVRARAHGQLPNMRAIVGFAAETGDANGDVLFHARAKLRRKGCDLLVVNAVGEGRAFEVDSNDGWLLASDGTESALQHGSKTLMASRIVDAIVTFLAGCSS

Values are the deposited “Percent Effect”, in %. The record does not define 0% and 100%; most values in the screen are far below 50% and negative numbers occur (in some assays of this library far below -100). This is an unselected part of the compounds tested. Two or more numbers in one place are separate tests of the same structure; such repeats can differ widely. A dash means the value is not listed here; it may have been measured.

Pks13 thioesterase: 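Enzyme assay of the thioesterase domain of polyketide synthase 13; the read-out is not stated. Target: Polyketide synthase Pks13, Mycobacterium tuberculosis (UniProt I6X8D2). Compounds at 30 µM. Higher reads as stronger inhibition (inferred from which compounds were picked for retests). Size under these conditions: about 67,000 compounds, about 300 of them at 50% or above in at least one test.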
LiHisRS: 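Histidine-tRNA ligase, Leishmania infantum (UniProt A4I591). Enzyme assay of histidyl-tRNA synthetase; the read-out is not stated. Tested at 30 µM. The record gives no direction; compounds that gave an IC50 in retests scored well above the rest, so higher reads as stronger inhibition. The assay is labelled LdHisRS but filed under L. infantum. Size under these conditions: about 69,000 compounds, about 410 of them at 50% or above in at least one test.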
CoaBC: 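Coenzyme A biosynthesis protein CoaBC, Mycobacterium tuberculosis (UniProt P9WNZ1). Enzyme assay of CoaBC with a phosphate dye (Biomol Green) read at 650 nm. Tested at 30 µM. Higher reads as stronger inhibition, judged from the few compounds that gave an IC50. Most strong results did not repeat in a second test. Size under these conditions: about 67,000 compounds, about 40 of them at 50% or above in at least one test.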

| # | Compound | Pks13 thioesterase | LiHisRS | CoaBC |
|---|---|---|---|---|
| 1 | `O=C1CC2(CCCCN2CC2CC2)CN1c1ccccc1` (configuration not stated) | -32.11 | 35.04 | 1.25 |
| 2 | `O=C(Cc1ccc(F)cc1)NCCNc1cc(N2CCCC2)cnn1` | 37.74 | 15.22 | 0.9685 |
| 3 | `CN(C)c1ncc(-c2ccc(C(N)=O)cc2)c(C2CCNC2)n1` (configuration not stated) | -8.94 | 9.396 | -2.055 |
| 4 | `CN1CCN(C(CNC(=O)c2ccc(Cl)cc2F)c2cccs2)CC1` (configuration not stated) | 21.3 | 27.27 | -17.16 |
| 5 | `CCN1C(=O)CCCC12CCCN(C(=O)c1ccsc1)C2` (configuration not stated) | -21.75 | 5.128 | - |
| 6 | `Cc1cnc(NC(=O)c2ccc(-n3ncc(C#N)c3N)cc2)s1` | 28.69 | -16.85 | 0.2571 |
| 7 | `O=C(NCCc1cc(F)ccc1F)NC(CO)c1ccccc1` (configuration not stated) | -14.14 | 18.75 | 9.917 |
| 8 | `CCc1c(C(=O)NC2CCS(=O)(=O)C2)cnn1-c1ccc(C)cc1` (configuration not stated) | 5.412 | 5.357 | 3.636 |
| 9 | `Cc1cnn(CCNCC(=O)Nc2ccc(Br)cn2)c1` | 1.427 | 6 | -1.733 |
| 10 | `COCc1cc(N(C)Cc2ncnn2C)nc(C(C)(C)C)n1` | -28.54 | 11.69 | 6.329 |
| 11 | `CN1CCN(C(C)(C)CNC(=O)C2CCCN2S(C)(=O)=O)CC1` (configuration not stated) | -6.637 | 0 | 3.846 |
| 12 | `O=C(NCC1CCOC1)Nc1ccc(Oc2cccc(F)c2)nc1` (configuration not stated) | -21.79 | 12.04 | 10.79 |
| 13 | `Cn1cccc1C(=O)N1CCC(O)(CN2CCc3ccccc3C2)C1` (configuration not stated) | 5.996 | 15.94 | -1.456 |
| 14 | `O=C(c1ccsc1)N1CCc2c(CN3CCCC3)n[nH]c2C1` | -22.14 | 25 | 1.613 |
| 15 | `CC(C)Cc1nc(CN2CCc3onc(-c4cccc(F)c4)c3C2)no1` | 3.747 | 32.79 | -17.1 |
| 16 | `C=C(C)COc1ccccc1C(=O)N(C)C(C)c1c(C)n[nH]c1C` (configuration not stated) | -19.3 | 14.75 | -2.558 |
| 17 | `CC(=O)N[C@@H]1CN(Cc2nnc(-c3ccccc3)o2)C[C@H]1C(C)C` | 1.909 | 8.824 | 3.259 |
| 18 | `O=C1OCC(CO)N1Cc1cccc(Cl)c1F` (configuration not stated) | -8.033 | 22.83 | 0.3632 |
| 19 | `CCn1c(-c2ccccc2)nn(CC(=O)NCCc2ccc(C)s2)c1=O` | -19.8 | 18.57 | 3.484 |
| 20 | `CC(Nc1nc2c(cnn2C)c(=O)[nH]1)c1ccc(F)cc1` (configuration not stated) | 3.625 | 5.333 | -2.066 |
| 21 | `CC(C)C(=O)NCCC(=O)N1CCN(c2ccccn2)CC1` | 2.054 | 20.22 | 1.083 |
| 22 | `N#CCCN(Cc1ccccn1)Cn1cc(Cl)cn1` | 6.76 | 6.195 | 7.009 |
| 23 | `O=C(CCc1cc(Br)cs1)NCCCn1ccnc1` | -27.9 | 21.92 | 2.789 |
| 24 | `Cc1nc(N(C)C)nc(N(C)CCc2ccncc2)c1C` | -21.9 | 14.58 | 6.731 |
| 25 | `CC(C)[C@H](N)C(=O)N1CCCC(C2=Nc3ccccc3S(=O)(=O)N2)C1` (some centres not stated) | -2.098 | 11.19 | 4.6 |
| 26 | `N#Cc1ccc(CNCC2(c3ccccc3)CCOCC2)cc1` | -11.09 | 42.86 | -3.066 |
| 27 | `CCc1nc(CN2CCCN(C(=O)c3cc(C)on3)CC2)cs1` | - | 15.09 | 7.368 |
| 28 | `CCc1nnsc1C(=O)NCc1c(C)nn(CCOC)c1C` | -17.49 | 17.46 | -3.727 |
| 29 | `O=C(NC1CC1)N1C[C@H]2CN(Cc3cccc(F)c3)C(=O)[C@H]2C1` | -10.15 | 17.43 | 8.722 |
| 30 | `Cc1cc(C(F)(F)F)nn1CC(C)C(=O)Nc1ccccn1` (configuration not stated) | -24.36 | 10.34 | 20.09 and 2.116 |
| 31 | `O=C(NCc1cc(=O)n2c(n1)CN(CC1CC1)CCC2)c1ccsc1` | -28.64 | 15.84 | -0.1238 |
| 32 | `Cc1cccc(CN2Cc3ccnn3CC(COCC3CC3)C2)n1` (configuration not stated) | -8.666 | 5.455 | 4.202 |
| 33 | `Cc1cc(C)n(-c2cccc(NC(=O)N3CCC[C@@H]3CO)c2)n1` | 0.06775 | 9.302 | 1.351 |
| 34 | `CNC(=O)[C@H]1C[C@H]2OCC[C@H]2N(CC2CC2)C1` | -31.63 | 25 | 4.194 |
| 35 | `COc1cc(CNC(C)Cn2cccn2)cc(OC)c1` (configuration not stated) | -14.45 | 13.91 | 1.935 |
| 36 | `CC(C)(C)c1cc(C[C@H]2CNCC[C@H]2CC(=O)Nc2ccccc2)no1` | -38.7 | 8.333 | -23.23 |
| 37 | `CN(C)c1nccc(N2CCO[C@H]3CN(Cc4ccco4)C[C@H]32)n1` | -3.239 | 24.47 | 4.039 |
| 38 | `COc1cc(NC(=O)c2ccc(CN3CC[C@H](O)C3)cc2)cc(OC)c1` | -5.686 | -14.29 | 5.052 |
| 39 | `Cc1cnc(N2Cc3cnn(Cc4ccc(F)cc4)c3C2)nc1N(C)C` | -46.95 | 9.375 | 11.31 |
| 40 | `CCCc1noc(CCC(=O)N2CCCC2Cn2cc(C)cn2)n1` (configuration not stated) | -4.223 | 2.74 | 0.1318 |
| 41 | `O=C1COc2ccc(Br)cc2CN1CC1CC1` | -43.04 | 15.58 | 2.81 |